The supplement of paper PMC12823440, “Inhibitors supercharge kinase turnover through native proteolytic circuits” (Nature, 2025)
Where a name gives a salt, the structure may show the parent alone. The list shows a part of the results. Hit calls seldom repeat between salt and free forms of one compound.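 In K562 cells expressing nanoluciferase-fused kinases, luminescence was recorded at 4 h intervals between 2 and 18 h, normalized as percent of control with DMSO at 100% and a positive control at 0%. A significant (2 sigma) signal drop marks a time point as decreased. The authors' rule for a hit is not shown and takes in more than the number of time points.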

By UniProt entry, the sequences of proteins in these tests, tags left out. Where a name states a change or a piece, a line headed by the entry shows the natural chain unless it says otherwise.
UniProt P23458: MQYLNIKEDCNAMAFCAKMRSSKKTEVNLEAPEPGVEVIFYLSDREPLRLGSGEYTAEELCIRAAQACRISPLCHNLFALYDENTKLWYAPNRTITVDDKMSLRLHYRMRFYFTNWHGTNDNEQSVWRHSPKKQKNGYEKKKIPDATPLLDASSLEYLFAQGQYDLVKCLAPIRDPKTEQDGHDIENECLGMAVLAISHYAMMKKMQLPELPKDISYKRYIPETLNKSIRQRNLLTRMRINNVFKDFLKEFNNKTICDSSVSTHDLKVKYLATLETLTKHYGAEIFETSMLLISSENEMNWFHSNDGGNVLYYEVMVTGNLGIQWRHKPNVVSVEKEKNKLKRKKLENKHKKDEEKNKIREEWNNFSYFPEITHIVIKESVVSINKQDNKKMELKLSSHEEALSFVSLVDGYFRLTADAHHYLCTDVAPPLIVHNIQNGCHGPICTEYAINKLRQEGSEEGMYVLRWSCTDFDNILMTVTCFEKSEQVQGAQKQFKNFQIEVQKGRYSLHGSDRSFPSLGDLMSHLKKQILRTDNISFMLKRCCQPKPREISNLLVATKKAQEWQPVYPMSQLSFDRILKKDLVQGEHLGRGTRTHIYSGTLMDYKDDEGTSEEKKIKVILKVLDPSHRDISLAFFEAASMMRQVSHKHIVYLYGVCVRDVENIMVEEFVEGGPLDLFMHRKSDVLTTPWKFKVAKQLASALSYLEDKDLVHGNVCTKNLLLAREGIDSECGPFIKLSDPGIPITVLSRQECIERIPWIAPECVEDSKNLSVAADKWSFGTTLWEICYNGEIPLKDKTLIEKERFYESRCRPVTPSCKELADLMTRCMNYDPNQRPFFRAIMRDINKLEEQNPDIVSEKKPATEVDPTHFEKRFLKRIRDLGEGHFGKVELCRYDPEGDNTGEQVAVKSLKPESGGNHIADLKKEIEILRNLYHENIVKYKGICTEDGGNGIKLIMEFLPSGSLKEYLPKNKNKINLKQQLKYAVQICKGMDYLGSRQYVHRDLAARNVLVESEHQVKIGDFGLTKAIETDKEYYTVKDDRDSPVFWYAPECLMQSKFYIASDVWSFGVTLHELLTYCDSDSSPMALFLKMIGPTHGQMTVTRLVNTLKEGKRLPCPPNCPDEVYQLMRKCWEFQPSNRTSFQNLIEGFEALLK
UniProt P06239: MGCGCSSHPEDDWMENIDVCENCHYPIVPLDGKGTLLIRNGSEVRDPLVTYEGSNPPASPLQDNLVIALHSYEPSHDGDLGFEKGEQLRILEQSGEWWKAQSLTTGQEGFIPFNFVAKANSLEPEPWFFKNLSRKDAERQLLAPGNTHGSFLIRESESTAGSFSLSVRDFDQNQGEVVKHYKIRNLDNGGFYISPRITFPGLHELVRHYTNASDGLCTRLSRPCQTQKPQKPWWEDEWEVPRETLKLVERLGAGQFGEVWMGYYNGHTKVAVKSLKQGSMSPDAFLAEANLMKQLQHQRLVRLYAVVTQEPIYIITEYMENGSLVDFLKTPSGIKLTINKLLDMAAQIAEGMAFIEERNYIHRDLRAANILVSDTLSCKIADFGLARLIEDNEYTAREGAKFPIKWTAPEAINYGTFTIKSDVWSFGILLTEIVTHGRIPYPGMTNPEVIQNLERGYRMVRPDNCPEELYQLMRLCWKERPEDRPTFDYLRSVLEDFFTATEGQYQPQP
UniProt P53667: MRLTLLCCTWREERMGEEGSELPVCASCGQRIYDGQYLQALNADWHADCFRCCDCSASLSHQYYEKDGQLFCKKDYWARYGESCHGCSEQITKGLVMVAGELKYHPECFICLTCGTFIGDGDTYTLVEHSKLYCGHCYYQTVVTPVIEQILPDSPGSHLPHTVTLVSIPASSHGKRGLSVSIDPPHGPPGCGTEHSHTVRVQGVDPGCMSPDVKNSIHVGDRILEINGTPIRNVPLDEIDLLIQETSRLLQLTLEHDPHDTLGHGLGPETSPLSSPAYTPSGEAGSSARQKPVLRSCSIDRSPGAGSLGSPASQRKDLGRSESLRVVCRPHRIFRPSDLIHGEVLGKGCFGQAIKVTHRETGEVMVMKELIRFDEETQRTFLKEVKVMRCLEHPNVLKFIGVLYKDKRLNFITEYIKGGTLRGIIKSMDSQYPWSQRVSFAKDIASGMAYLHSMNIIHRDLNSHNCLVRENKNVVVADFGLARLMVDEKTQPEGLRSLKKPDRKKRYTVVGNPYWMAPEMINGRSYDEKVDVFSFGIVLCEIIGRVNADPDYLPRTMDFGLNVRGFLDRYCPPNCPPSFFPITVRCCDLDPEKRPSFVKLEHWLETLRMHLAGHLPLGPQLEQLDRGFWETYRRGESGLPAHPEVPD
UniProt P53671: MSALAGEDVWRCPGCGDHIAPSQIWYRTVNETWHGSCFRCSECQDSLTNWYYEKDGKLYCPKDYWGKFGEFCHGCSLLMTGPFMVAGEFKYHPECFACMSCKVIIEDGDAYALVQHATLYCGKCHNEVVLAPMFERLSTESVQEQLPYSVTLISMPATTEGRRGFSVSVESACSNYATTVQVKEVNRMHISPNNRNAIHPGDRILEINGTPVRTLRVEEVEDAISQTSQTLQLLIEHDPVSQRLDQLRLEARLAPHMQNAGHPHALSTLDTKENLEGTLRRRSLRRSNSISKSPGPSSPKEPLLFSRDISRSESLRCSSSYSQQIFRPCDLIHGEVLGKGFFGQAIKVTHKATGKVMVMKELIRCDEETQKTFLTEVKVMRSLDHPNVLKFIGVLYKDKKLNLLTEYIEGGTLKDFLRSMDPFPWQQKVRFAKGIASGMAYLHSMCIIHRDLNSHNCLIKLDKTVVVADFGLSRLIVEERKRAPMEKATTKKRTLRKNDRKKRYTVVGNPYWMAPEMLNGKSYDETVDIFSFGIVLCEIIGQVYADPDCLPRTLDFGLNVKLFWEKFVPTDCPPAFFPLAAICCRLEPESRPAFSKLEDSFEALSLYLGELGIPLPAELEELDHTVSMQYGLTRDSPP
UniProt P31152, whole entry: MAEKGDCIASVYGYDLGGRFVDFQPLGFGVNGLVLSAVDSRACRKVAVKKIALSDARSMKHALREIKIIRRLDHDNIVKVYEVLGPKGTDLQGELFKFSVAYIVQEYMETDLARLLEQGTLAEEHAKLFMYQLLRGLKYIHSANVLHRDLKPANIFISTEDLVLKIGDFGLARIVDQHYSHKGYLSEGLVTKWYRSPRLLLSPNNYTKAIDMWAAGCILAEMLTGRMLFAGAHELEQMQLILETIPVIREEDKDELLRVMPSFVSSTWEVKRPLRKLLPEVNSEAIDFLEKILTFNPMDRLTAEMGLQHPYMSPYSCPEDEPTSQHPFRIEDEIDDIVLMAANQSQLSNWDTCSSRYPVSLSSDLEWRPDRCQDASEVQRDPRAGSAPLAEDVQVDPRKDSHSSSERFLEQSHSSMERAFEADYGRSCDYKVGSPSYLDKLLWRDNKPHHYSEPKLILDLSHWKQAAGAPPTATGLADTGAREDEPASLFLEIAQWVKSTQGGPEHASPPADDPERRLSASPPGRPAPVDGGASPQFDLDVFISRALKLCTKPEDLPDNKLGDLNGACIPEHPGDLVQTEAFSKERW
UniProt Q9BUB5: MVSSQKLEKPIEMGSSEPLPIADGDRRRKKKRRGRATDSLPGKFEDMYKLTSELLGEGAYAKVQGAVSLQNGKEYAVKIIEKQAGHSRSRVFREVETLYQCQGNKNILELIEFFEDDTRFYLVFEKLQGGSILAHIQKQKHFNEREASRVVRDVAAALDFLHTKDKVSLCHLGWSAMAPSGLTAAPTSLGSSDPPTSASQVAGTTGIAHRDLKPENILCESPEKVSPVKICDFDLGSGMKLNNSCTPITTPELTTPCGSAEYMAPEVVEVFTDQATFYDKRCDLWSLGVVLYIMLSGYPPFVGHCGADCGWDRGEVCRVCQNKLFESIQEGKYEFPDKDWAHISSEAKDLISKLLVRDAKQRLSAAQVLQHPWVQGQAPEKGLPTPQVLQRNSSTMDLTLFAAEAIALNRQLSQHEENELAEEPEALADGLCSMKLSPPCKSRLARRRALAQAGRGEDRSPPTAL
UniProt Q16620, whole entry, looked up: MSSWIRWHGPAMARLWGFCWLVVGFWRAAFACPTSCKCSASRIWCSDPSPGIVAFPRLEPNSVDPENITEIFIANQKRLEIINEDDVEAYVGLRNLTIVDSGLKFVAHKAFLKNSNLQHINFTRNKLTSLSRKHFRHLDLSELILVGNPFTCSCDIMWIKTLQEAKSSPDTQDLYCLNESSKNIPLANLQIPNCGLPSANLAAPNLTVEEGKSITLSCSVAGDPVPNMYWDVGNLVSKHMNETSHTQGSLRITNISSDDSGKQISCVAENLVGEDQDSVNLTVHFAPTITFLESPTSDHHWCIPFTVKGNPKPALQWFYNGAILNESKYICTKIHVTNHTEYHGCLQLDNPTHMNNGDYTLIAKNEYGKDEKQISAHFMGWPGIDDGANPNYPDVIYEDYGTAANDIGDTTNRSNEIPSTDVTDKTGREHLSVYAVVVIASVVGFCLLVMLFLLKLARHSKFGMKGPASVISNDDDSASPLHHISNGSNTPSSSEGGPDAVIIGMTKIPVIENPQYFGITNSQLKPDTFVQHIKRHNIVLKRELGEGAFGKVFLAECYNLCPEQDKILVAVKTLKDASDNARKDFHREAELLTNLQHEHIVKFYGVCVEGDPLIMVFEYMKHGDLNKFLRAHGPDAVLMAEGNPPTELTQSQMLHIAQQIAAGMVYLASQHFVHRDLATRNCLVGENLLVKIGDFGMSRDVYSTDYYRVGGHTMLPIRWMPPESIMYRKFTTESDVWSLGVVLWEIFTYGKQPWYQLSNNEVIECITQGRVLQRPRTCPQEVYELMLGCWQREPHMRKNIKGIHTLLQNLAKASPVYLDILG
UniProt P09619, whole entry: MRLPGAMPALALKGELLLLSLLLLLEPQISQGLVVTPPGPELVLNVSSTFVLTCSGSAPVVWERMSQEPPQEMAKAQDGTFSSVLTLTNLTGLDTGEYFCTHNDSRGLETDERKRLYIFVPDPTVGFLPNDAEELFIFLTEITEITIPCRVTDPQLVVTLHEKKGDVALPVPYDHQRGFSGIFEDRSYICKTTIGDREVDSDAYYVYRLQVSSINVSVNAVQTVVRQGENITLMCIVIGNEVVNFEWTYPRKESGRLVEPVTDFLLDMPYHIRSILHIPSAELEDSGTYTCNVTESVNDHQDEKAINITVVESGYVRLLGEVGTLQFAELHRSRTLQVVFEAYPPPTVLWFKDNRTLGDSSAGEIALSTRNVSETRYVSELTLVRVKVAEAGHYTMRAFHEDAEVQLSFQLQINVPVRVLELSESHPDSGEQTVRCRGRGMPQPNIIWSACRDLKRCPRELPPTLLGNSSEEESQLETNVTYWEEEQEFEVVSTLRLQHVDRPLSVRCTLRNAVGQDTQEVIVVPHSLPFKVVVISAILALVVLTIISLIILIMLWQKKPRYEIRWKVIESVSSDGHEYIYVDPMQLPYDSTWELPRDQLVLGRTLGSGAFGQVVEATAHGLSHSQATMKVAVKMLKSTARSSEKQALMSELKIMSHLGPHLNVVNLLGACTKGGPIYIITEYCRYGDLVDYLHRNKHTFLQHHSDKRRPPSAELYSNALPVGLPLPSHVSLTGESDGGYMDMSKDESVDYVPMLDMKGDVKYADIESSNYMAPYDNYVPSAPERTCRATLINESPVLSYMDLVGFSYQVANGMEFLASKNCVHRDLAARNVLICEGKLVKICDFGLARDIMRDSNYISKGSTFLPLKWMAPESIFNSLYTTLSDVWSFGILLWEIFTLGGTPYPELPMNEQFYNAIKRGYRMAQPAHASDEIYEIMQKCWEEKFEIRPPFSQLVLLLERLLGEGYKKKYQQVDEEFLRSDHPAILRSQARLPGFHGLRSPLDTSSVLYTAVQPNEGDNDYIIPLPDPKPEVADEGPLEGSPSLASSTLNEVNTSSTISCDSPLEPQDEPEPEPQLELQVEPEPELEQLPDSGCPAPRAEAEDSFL
UniProt Q15118, whole entry, looked up: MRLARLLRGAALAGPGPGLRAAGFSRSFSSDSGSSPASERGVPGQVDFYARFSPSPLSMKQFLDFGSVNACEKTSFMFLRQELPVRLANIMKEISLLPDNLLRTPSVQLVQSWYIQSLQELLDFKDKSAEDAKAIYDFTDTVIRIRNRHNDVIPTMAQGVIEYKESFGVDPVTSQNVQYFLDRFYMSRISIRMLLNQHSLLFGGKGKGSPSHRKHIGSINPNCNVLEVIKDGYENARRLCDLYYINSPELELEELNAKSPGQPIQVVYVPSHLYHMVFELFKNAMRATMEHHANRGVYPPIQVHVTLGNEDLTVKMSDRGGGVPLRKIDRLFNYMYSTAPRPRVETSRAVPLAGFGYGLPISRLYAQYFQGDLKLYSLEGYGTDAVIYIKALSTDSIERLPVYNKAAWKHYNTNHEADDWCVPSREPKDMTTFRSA

Experiments:
Experiment in all cases: kinase-Nluc reporter destabilization hit call (1 = scored as downregulated) (binary); higher = compound decreases kinase abundance
Settings in all cases: K562; 2-18 h
IRAK3 = IRAK3 (UniProt Q9Y616)
JAK1 = JAK1 (UniProt P23458)
LCK = LCK (UniProt P06239)
LIMK1 = LIMK1 (UniProt P53667)
LIMK2 = LIMK2 (UniProt P53671)
LMTK2 = LMTK2 (UniProt Q8IWU2)
LYN = LYN (UniProt P07948)
MAP2K1 = MAP2K1 (UniProt Q02750)
MAP2K2 = MAP2K2 (UniProt P36507)
MAP4K2 = MAP4K2 (UniProt Q12851)
MAPK1 = MAPK1 (UniProt P28482)
MAPK4 = MAPK4 (UniProt P31152)
MAPKAPK2 = MAPKAPK2 (UniProt P49137)
MKNK1 = MKNK1 (UniProt Q9BUB5)
NTRK2 = NTRK2 (UniProt Q16620)
NTRK3 = NTRK3 (UniProt Q16288)
PAK4 = PAK4 (UniProt O96013)
PBK = PBK (UniProt Q96KB5)
PDGFRB = PDGFRB (UniProt P09619)
PDK1 = PDK1 (UniProt Q15118)

Measured: kinase-Nluc reporter destabilization hit call

COc1cc(-c2cnc(N)c(-c3ccc(NC(=O)c4cn(CC5CCOCC5)cc(-c5ccc(C)cn5)c4=O)cc3F)c2)ccc1OC[C@H]1COCCO1 [DS-1205b (free base)] (10 µM)
inactive: IRAK3 = 0 | JAK1 = 0 | LCK 0 | LIMK1 = 0 | LIMK2 = 0 | LMTK2 = 0 | LYN 0 | MAP2K1 = 0 | MAP2K2 = 0 | MAP4K2 = 0 | MAPK1 = 0 | MAPK4 = 0 | MAPKAPK2 = 0 | MKNK1 = 0 | NTRK2 = 0 | NTRK3 = 0 | PAK4 = 0 | PBK 0 | PDGFRB 0 | PDK1 = 0

C[C@@H](N)COc1ccc(-c2cnc3ccc(N[C@H](C)c4cccc(F)c4)nn23)cc1 [Taletrectinib] (2.5 µM)
inactive: IRAK3 = 0 | JAK1 = 0 | LCK 0 | LIMK1 = 0 | LIMK2 = 0 | LMTK2 = 0 | LYN 0 | MAP2K1 = 0 | MAP2K2 = 0 | MAP4K2 = 0 | MAPK1 = 0 | MAPK4 = 0 | MAPKAPK2 = 0 | MKNK1 = 0 | NTRK2 = 0 | NTRK3 = 0 | PAK4 = 0 | PBK 0 | PDGFRB 0 | PDK1 = 0

C=CC(=O)N1CCC[C@@H](n2c(=O)n(-c3ccc(Oc4ccccc4)cc3)c3c(N)nccc32)C1 [Tolebrutinib] (10 µM)
inactive: IRAK3 = 0 | JAK1 = 0 | LCK 0 | LIMK1 = 0 | LIMK2 = 0 | LMTK2 = 0 | LYN 0 | MAP2K1 = 0 | MAP2K2 = 0 | MAP4K2 = 0 | MAPK1 = 0 | MAPK4 = 0 | MAPKAPK2 = 0 | MKNK1 = 0 | NTRK2 = 0 | NTRK3 = 0 | PAK4 = 0 | PBK 0 | PDGFRB 0 | PDK1 = 0

COc1ccc(F)cc1C(=O)NCc1ccc(-c2nn([C@@H](C)C(F)(F)F)c(N)c2C(N)=O)cc1 [Pirtobrutinib] (10 µM)
inactive: IRAK3 = 0 | JAK1 = 0 | LCK 0 | LIMK1 = 0 | LIMK2 = 0 | LMTK2 = 0 | LYN 0 | MAP2K1 = 0 | MAP2K2 = 0 | MAP4K2 = 0 | MAPK1 = 0 | MAPK4 = 0 | MAPKAPK2 = 0 | MKNK1 = 0 | NTRK2 = 0 | NTRK3 = 0 | PAK4 = 0 | PBK 0 | PDGFRB 0 | PDK1 = 0

CN(c1ccc(C(F)(F)F)cc1)S(=O)(=O)c1ccc(C(=O)Nc2nc(-c3ccccn3)cs2)cc1 (2.5 µM)
inactive: IRAK3 = 0 | JAK1 = 0 | LCK 0 | LIMK1 = 0 | LIMK2 = 0 | LMTK2 = 0 | LYN 0 | MAP2K1 = 0 | MAP2K2 = 0 | MAP4K2 = 0 | MAPK1 = 0 | MAPK4 = 0 | MAPKAPK2 = 0 | MKNK1 = 0 | NTRK2 = 0 | NTRK3 = 0 | PAK4 = 0 | PBK 0 | PDGFRB 0 | PDK1 = 0

2 records drawn at random from the list so far, as already listed:
CN(c1ccc(C(F)(F)F)cc1)S(=O)(=O)c1ccc(C(=O)Nc2nc(-c3ccccn3)cs2)cc1 (2.5 µM)
inactive: IRAK3 = 0 | JAK1 = 0 | LCK 0 | LIMK1 = 0 | LIMK2 = 0 | LMTK2 = 0 | LYN 0 | MAP2K1 = 0 | MAP2K2 = 0 | MAP4K2 = 0 | MAPK1 = 0 | MAPK4 = 0 | MAPKAPK2 = 0 | MKNK1 = 0 | NTRK2 = 0 | NTRK3 = 0 | PAK4 = 0 | PBK 0 | PDGFRB 0 | PDK1 = 0

C=CC(=O)N1CCC[C@@H](n2c(=O)n(-c3ccc(Oc4ccccc4)cc3)c3c(N)nccc32)C1 [Tolebrutinib] (10 µM)
inactive: IRAK3 = 0 | JAK1 = 0 | LCK 0 | LIMK1 = 0 | LIMK2 = 0 | LMTK2 = 0 | LYN 0 | MAP2K1 = 0 | MAP2K2 = 0 | MAP4K2 = 0 | MAPK1 = 0 | MAPK4 = 0 | MAPKAPK2 = 0 | MKNK1 = 0 | NTRK2 = 0 | NTRK3 = 0 | PAK4 = 0 | PBK 0 | PDGFRB 0 | PDK1 = 0

Additional structures.

Cc1c(C(=O)Nc2ccc(Oc3ccnc4cc(OCC(C)(C)O)ccc34)c(F)c2)c(=O)n(-c2ccccc2)n1C [Ningetinib Tosylate] (10 µM)
inactive: IRAK3 = 0 | JAK1 = 0 | LCK 0 | LIMK1 = 0 | LIMK2 = 0 | LMTK2 = 0 | LYN 0 | MAP2K1 = 0 | MAP2K2 = 0 | MAP4K2 = 0 | MAPK1 = 0 | MAPK4 = 0 | MAPKAPK2 = 0 | MKNK1 = 0 | NTRK2 = 0 | NTRK3 = 0 | PAK4 = 0 | PBK 0 | PDGFRB 0 | PDK1 = 0

O=C(Nc1nccs1)C(c1cc(F)ccc1O)N1Cc2ccccc2C1=O (stereo not given) (10 µM)
inactive: IRAK3 = 0 | JAK1 = 0 | LCK 0 | LIMK1 = 0 | LIMK2 = 0 | LMTK2 = 0 | LYN 0 | MAP2K1 = 0 | MAP2K2 = 0 | MAP4K2 = 0 | MAPK1 = 0 | MAPK4 = 0 | MAPKAPK2 = 0 | MKNK1 = 0 | NTRK2 = 0 | NTRK3 = 0 | PAK4 = 0 | PBK 0 | PDGFRB 0 | PDK1 = 0

Cn1cc(-c2ccc3ncc(Cc4ccc5ncccc5c4)n3n2)cn1 (10 µM)
inactive: IRAK3 = 0 | JAK1 = 0 | LCK 0 | LIMK1 = 0 | LIMK2 = 0 | LMTK2 = 0 | LYN 0 | MAP2K1 = 0 | MAP2K2 = 0 | MAP4K2 = 0 | MAPK1 = 0 | MAPK4 = 0 | MAPKAPK2 = 0 | MKNK1 = 0 | NTRK2 = 0 | NTRK3 = 0 | PAK4 = 0 | PBK 0 | PDGFRB 0 | PDK1 = 0

Cc1cccc(Cn2nc(C)c3c(NC(=O)c4csc5c(N)ncnc45)cccc32)n1 (10 µM)
inactive: IRAK3 = 0 | JAK1 = 0 | LCK 0 | LIMK1 = 0 | LIMK2 = 0 | LMTK2 = 0 | LYN 0 | MAP2K1 = 0 | MAP2K2 = 0 | MAP4K2 = 0 | MAPK1 = 0 | MAPK4 = 0 | MAPKAPK2 = 0 | MKNK1 = 0 | NTRK2 = 0 | NTRK3 = 0 | PAK4 = 0 | PBK 0 | PDGFRB 0 | PDK1 = 0

O=C(CCc1ccc2n1[B-](F)(F)[N+]1=C(c3ccc[nH]3)C=CC1=C2)ON1C(=O)CCC1=O [Py-BODIPY-NHS ester] (2.5 µM)
inactive: IRAK3 = 0 | JAK1 = 0 | LCK 0 | LIMK1 = 0 | LIMK2 = 0 | LMTK2 = 0 | LYN 0 | MAP2K1 = 0 | MAP2K2 = 0 | MAP4K2 = 0 | MAPK1 = 0 | MAPK4 = 0 | MAPKAPK2 = 0 | MKNK1 = 0 | NTRK2 = 0 | NTRK3 = 0 | PAK4 = 0 | PBK 0 | PDGFRB 0 | PDK1 = 0

CC(C)=C/C=C1\O[C@@H]2CC(C)=CC(=O)[C@@H]2[C@]1(C)O [Bisabolangelone] (10 µM)
inactive: IRAK3 = 0 | JAK1 = 0 | LCK 0 | LIMK1 = 0 | LIMK2 = 0 | LMTK2 = 0 | LYN 0 | MAP2K1 = 0 | MAP2K2 = 0 | MAP4K2 = 0 | MAPK1 = 0 | MAPK4 = 0 | MAPKAPK2 = 0 | MKNK1 = 0 | NTRK2 = 0 | NTRK3 = 0 | PAK4 = 0 | PBK 0 | PDGFRB 0 | PDK1 = 0

O=c1cc(-c2ccc(O)cc2)oc2cc(O)c(O)c(O)c12 [Scutellarein] (10 µM)
inactive: IRAK3 = 0 | JAK1 = 0 | LCK 0 | LIMK1 = 0 | LIMK2 = 0 | LMTK2 = 0 | LYN 0 | MAP2K1 = 0 | MAP2K2 = 0 | MAP4K2 = 0 | MAPK1 = 0 | MAPK4 = 0 | MAPKAPK2 = 0 | MKNK1 = 0 | NTRK2 = 0 | NTRK3 = 0 | PAK4 = 0 | PBK 0 | PDGFRB 0 | PDK1 = 0

CN(C)C(=O)c1cc2cnc(Nc3ccc(NC(=O)C4(C(=O)Nc5ccc(F)cc5)CC4)cc3)nc2n1C1CCCC1 (2 µM)
inactive: IRAK3 = 0 | JAK1 = 0 | LCK 0 | LIMK1 = 0 | LIMK2 = 0 | LMTK2 = 0 | LYN 0 | MAP2K1 = 0 | MAP2K2 = 0 | MAP4K2 = 0 | MAPK1 = 0 | MAPK4 = 0 | MAPKAPK2 = 0 | MKNK1 = 0 | NTRK2 = 0 | NTRK3 = 0 | PAK4 = 0 | PBK 0 | PDGFRB 0 | PDK1 = 0

N#Cc1c[nH]c2ccc(-c3ccc(-c4c(O)cccc4O)cc3)cc12 (10 µM)
inactive: IRAK3 = 0 | JAK1 = 0 | LCK 0 | LIMK1 = 0 | LIMK2 = 0 | LMTK2 = 0 | LYN 0 | MAP2K1 = 0 | MAP2K2 = 0 | MAP4K2 = 0 | MAPK1 = 0 | MAPK4 = 0 | MAPKAPK2 = 0 | MKNK1 = 0 | NTRK2 = 0 | NTRK3 = 0 | PAK4 = 0 | PBK 0 | PDGFRB 0 | PDK1 = 0

CC(C)n1nc(C#Cc2ccccc2)c2c(N)ncnc21 (10 µM)
inactive: IRAK3 = 0 | JAK1 = 0 | LCK 0 | LIMK1 = 0 | LIMK2 = 0 | LMTK2 = 0 | LYN 0 | MAP2K1 = 0 | MAP2K2 = 0 | MAP4K2 = 0 | MAPK1 = 0 | MAPK4 = 0 | MAPKAPK2 = 0 | MKNK1 = 0 | NTRK2 = 0 | NTRK3 = 0 | PAK4 = 0 | PBK 0 | PDGFRB 0 | PDK1 = 0

COc1ncc2cc(C(=O)Nc3cc(C(=O)NCc4cccc(Cl)c4)ccc3Cl)c(=O)[nH]c2n1 (2.5 µM)
inactive: IRAK3 = 0 | JAK1 = 0 | LCK 0 | LIMK1 = 0 | LIMK2 = 0 | LMTK2 = 0 | LYN 0 | MAP2K1 = 0 | MAP2K2 = 0 | MAP4K2 = 0 | MAPK1 = 0 | MAPK4 = 0 | MAPKAPK2 = 0 | MKNK1 = 0 | NTRK2 = 0 | NTRK3 = 0 | PAK4 = 0 | PBK 0 | PDGFRB 0 | PDK1 = 0

COc1ccc(C2CC(c3ccc(Cl)cc3)=NN2c2nc(-c3ccncc3)cs2)cc1 (stereo not given) [mTOR inhibitor-8] (10 µM)
inactive: IRAK3 = 0 | JAK1 = 0 | LCK 0 | LIMK1 = 0 | LIMK2 = 0 | LMTK2 = 0 | LYN 0 | MAP2K1 = 0 | MAP2K2 = 0 | MAP4K2 = 0 | MAPK1 = 0 | MAPK4 = 0 | MAPKAPK2 = 0 | MKNK1 = 0 | NTRK2 = 0 | NTRK3 = 0 | PAK4 = 0 | PBK 0 | PDGFRB 0 | PDK1 = 0

Cc1ccc(Nc2c(C(N)=O)cnc3cc(-c4ccncc4)ccc23)cc1C [cFMS Receptor Inhibitor II] (10 µM)
inactive: IRAK3 = 0 | JAK1 = 0 | LCK 0 | LIMK1 = 0 | LIMK2 = 0 | LMTK2 = 0 | LYN 0 | MAP2K1 = 0 | MAP2K2 = 0 | MAP4K2 = 0 | MAPK1 = 0 | MAPK4 = 0 | MAPKAPK2 = 0 | MKNK1 = 0 | NTRK2 = 0 | NTRK3 = 0 | PAK4 = 0 | PBK 0 | PDGFRB 0 | PDK1 = 0
